# Data: PubChem BioAssay (NCATS)
# The chains behind the UniProt entries cited, without tags or fusion partners. Where a name states a change or a piece, a line headed by the entry shows the natural chain unless it says otherwise.
# UniProt Q07343: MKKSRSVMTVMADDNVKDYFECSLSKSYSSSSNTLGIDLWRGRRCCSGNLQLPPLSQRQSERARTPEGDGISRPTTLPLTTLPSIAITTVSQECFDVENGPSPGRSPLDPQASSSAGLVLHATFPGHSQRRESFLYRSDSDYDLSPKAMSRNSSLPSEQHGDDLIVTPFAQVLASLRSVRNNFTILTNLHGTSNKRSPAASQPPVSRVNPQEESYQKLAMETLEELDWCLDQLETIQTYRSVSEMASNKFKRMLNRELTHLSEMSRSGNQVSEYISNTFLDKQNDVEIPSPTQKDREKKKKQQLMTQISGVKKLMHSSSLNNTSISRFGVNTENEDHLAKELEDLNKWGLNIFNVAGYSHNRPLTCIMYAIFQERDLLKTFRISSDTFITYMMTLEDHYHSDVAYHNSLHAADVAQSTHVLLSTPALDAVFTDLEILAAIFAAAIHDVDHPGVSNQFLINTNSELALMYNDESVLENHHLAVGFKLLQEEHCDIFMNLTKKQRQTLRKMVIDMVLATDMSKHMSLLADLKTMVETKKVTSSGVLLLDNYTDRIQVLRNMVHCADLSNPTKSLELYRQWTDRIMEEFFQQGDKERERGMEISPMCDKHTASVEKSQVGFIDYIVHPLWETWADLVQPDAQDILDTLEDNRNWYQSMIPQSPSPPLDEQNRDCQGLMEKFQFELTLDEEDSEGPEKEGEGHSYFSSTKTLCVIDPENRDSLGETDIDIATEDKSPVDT
# UniProt Q9HAZ1: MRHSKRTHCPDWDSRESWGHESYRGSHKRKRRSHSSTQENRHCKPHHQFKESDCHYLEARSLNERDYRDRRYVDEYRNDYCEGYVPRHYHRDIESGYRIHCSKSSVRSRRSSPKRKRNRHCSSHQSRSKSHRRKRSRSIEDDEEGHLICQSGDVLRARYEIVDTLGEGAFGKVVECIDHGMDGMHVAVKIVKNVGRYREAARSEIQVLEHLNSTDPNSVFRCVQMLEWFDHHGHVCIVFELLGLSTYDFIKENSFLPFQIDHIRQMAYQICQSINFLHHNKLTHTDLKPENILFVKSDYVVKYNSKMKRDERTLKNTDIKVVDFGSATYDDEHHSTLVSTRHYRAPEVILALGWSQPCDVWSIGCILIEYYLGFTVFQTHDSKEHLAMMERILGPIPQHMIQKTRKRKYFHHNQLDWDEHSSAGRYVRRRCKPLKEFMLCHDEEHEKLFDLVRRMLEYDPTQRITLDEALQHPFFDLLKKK
# This list was built around the results that the source calls inconclusive (neither active nor inactive); the mix of calls is not that of the screen. For some assays here: Where the call is inconclusive, the potency comes from a doubtful curve fit. Calls of active or inactive are those of the source. Unless noted, the call rests on the fitted dose curve; in most records, active means well fitted curve in the direction sought with a large enough effect; inconclusive means small, poorly fitted or top-dose-only effect, or another doubt; inactive means no such curve, though single readings can be large; an effect the other way counts as inactive or inconclusive.
# Assays:
# [1] = Stat Signaling Pathway (AID 446; active means well fitted curve in either direction with a large enough effect, not every such curve was filed as active; inconclusive means small, poorly fitted or top-dose-only effect, or another doubt;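 further: ME-180 cervical cancer cells given 40 pM IL-6 alongside compound; SIE-controlled beta-lactamase reporter measured as 460/530 nm FRET emission ratio; on the % scale 0 is the no-effect control and ±100 the full control effect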); details: ME-180 SIE beta-lactamase reporter, IL-6 stimulated, 5 h; at 7.69 µM (top of the series) unless noted
# Summary of the method: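 Reporter line: ME-180 cervical carcinoma, SIE-beta-lactamase. Treatment: compound with 40 pM IL-6, 5 hrs, 37 C, in low-serum OPTI-MEM with 10 mM HEPES pH 7.3. Detection: 460/530 nm fluorescence.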
# [2] = qHTS Assay for Identification of Small Molecule Agonists for Hypoxia Response Element Signaling Pathway (AID 914; active means well fitted activation curve with a large enough effect in the signal ratio, with a control signal flat, not every such curve was filed as active; inconclusive means small, poorly fitted or top-dose-only effect, or effect the other way, or a change in a side signal; the % refers to the signal ratio; further: potency means the concentration at half of the fitted maximal effect); details: ME-180 (cervical carcinoma) HRE-bla reporter, beta-lactamase ratio, CoCl2, 17 h; activation: hits give high values
# Summary of the method: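 Reporter activity (beta-lactamase, CCF4 460nm/530nm ratio) in HRE-bla ME-180 cells is recorded after 17 h compound exposure with EC50 CoCl2 at 37 degrees Celsius. AC50 values come from titration data.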
# [3] = Confirmatory qHTS for small molecule stabilizers of the endoplasmic reticulum resident proteome: Secreted ER Calcium Modulated Protein (SERCaMP) assay (AID 1508628); further: potency means the concentration at half of the fitted maximal effect; nearly all actives have a fitted effect of over 40% in size
# Summary of the method: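 SH-SY5Y cells stably expressing GLuc-SERCaMP, treated 16 h with compound (primary 1.53, 7.67, 38.3 uM; confirmation 11 concentrations, up to 76.6 uM), then 100 nM thapsigargin for 4 h. Secreted Gaussia luciferase in medium read by coelenterazine luminescence.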
# [4] = Cell Viability qHTS for small molecule stabilizers of the endoplasmic reticulum resident proteome (AID 1508629); details: cell viability counter-screen, 100 nM thapsigargin for final 4 h;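 further: potency means the concentration at half of the fitted maximal effect; compound exposure about 46 h in total before the viability read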
# [5] = Primary qHTS for small molecule stabilizers of the endoplasmic reticulum resident proteome: Secreted ER Calcium Modulated Protein (SERCaMP) assay (AID 1508630); details: SH-SY5Y GLuc-SERCaMP (Gaussia luciferase released on ER calcium loss) secretion, thapsigargin, luminescence; activity change, negative = inhibition: at 38.4 µM (top of the series) unless noted; further: potency means the concentration at half of the fitted maximal effect
# Summary of the method: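 GLuc-SERCaMP-expressing SH-SY5Y cells, pretreated 16 h with compound, are challenged with thapsigargin to empty ER calcium stores; after 4 h, coelenterazine is added directly to the medium and luminescence is imaged.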
# [6] = target: 3',5'-cyclic-AMP phosphodiesterase 4B (Homo sapiens) (UniProt Q07343); test: qHTS Assay for Inhibitors of PDE-IV (AID 607; active means well fitted activation curve with a large enough effect in the main read-out, with a control signal flat, not every such curve was filed as active; inconclusive means small, poorly fitted or top-dose-only effect, or effect the other way, or a change in a side signal; further: % of control where 0% means no effect); details: HEK293 ACTOne CNG channel cells, membrane potential fluorescence; activation (PDE inhibition): at 22.9 µM (top of the series)
# Summary of the method: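 Cell-based read-out of cAMP via a modified cyclic nucleotide-gated channel and membrane potential dye (535/590 nm) in HEK293 cells expressing PDE4 endogenously. Compounds tested up to 22.9 uM final; 100 uM RO 20-1724 reference.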
# [7] = target: Dual specificity protein kinase CLK4 (Homo sapiens) (UniProt Q9HAZ1); test: qHTS Assay for Inhibitors of CDC-like Kinase 4 (ADP-Glo Assay) (AID 1771); further: on the % scale 0 is the no-effect control and ±100 the full control effect; nearly all actives have a fitted effect of over 70% in size
# Summary of the method: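 25 nM Clk4 with 100 uM RS repeat peptide and 1 uM ATP (final) in buffer with 2 mM MgCl2, 0.5 mM EGTA, 2.5 mM DTT, 0.01% Triton X-100; 1 h at room temperature; ADP-Glo luminescence for ADP formed.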
SMILES,"activity, negative = inhibition [1]",Potency [2],Potency [3],Potency [4],Potency [5],Potency [6],Potency [7]
O=c1c(-c2ccccc2)nc2cnc(N3CCNCC3)nc2n1C1CC1,inconclusive: 79.3% [activator],active: 3.16 µM,active: 39.8 µM,"inconclusive: 0.158 µM [rising, full curve, poor fit]","inconclusive: 10 µM [inhibitor, partial curve, poor fit]",,
COc1ccc(Oc2ncc3nc(-c4cc(F)cc(F)c4)c(=O)n(C4CC4)c3n2)cc1,,"inconclusive: 5.01 µM [activator, single point]","inconclusive: 39.8 µM [inhibitor, partial curve]","inconclusive: 0.199 µM [rising, full curve]","inconclusive: 10 µM [inhibitor, partial curve, poor fit]",inactive,inactive
